Test results from article PMC5870190, “A three-in-one-bullet for oesophageal cancer: replication fork collapse, spindle attachment failure and enhanced radiosensitivity generated by a ruthenium(II) metallo-intercalator” (Chemical Science, 2017).

Test system: OE21 cells
Experiment: Cellular and nuclear ruthenium content by ICP-MS, OE21 cells
Format: cell-based, human
Details: OE21, 20 μM, 24 h

Substance: [Ru(phen)2(dppz)]^2+
- lower average cellular Ru content than cells treated with Ru1: 13 fold
- reduction in nuclear Ru content than cells treated with Ru1: 28 fold
